According to PubChem BioAssay AID504467 (National Center for Advancing Translational Sciences (NCATS), 2011):
Out of some 330,000 compounds screened, about 7,700 (2.3%) were called active. The inconclusive results got no clear call from the source; some entries with a clear call stand among them for comparison. Calls follow the shape of the dose curve; as a rule, active = well fitted inhibition curve with a large enough effect; inconclusive = small, poorly fitted or top-dose-only effect, or effect the other way; inactive = flat fitted curve, though single readings scatter. Where the call is inconclusive, the potency comes from a doubtful curve fit.
% is scaled to controls: 0 for no effect and ±100 for the full control effect; potency is read from the fitted curve at half-maximal effect.

Experiment: qHTS screen for small molecules that inhibit ELG1-dependent DNA repair in human embryonic kidney (HEK293T) cells expressing luciferase-tagged ELG1; also: nearly all actives have a fitted effect of over 55% in size
Conditions: HEK293T ELG1-luciferase reporter, luminescence, 16 h, DNA damage induced by 5-fluorouridine; activity change, negative = inhibition: at 46.1 µM (top of the series)
In short: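 HEK293T cells expressing luciferase-tagged ELG1 (2,000/well) received 5-Fluorouridine plus compound or DMSO for 16 hr at 37 °C. Luciferase was read by ONE-Glo luminescence after 30 min at room temperature.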
For `CN1C(=O)C(Cc2cccc3ccccc23)C(=O)N(C)C1=O`, the “activity change, negative = inhibition” value was inactive: -0.164%. For `CCSc1nnc([C@@H](N)Cc2c[nH]c3ccccc23)o1`, the Potency was inconclusive: 0.517 µM [activator, partial curve, poor fit]. With `Cc1ccc(OC(F)F)c(N2C(=O)C3C4CCC(O4)C3C2=O)c1` (configuration not stated) the Potency was inconclusive: 29.1 µM [activator, single point]. In the case of `O=P(Oc1ccccc1)(Oc1ccccc1)C(O)c1ccccc1` (configuration not stated), the “activity change, negative = inhibition” value is reported as inactive: 1.64%. For `COC(=O)c1ccc(NC(=O)NC(=O)Oc2ccccc2)cc1`, the Potency was inconclusive: 20.6 µM [activator, partial curve, poor fit]. In the case of `CCOc1ccc(-n2c(-c3ccoc3)nc3ccccc3c2=O)cc1`, the Potency is reported as inconclusive: 18.4 µM [inhibitor, single point]. In the case of `CC(C)CCn1c(N)c(C(=O)OCC2CCCO2)c2nc3ccccc3nc21` (configuration not stated), the Potency is reported as inconclusive: 8.91 µM [inhibitor, partial curve, poor fit]. In the case of `N#CC(Br)Br`, the Potency is reported as inconclusive: 16.4 µM [activator, single point]. For `CC(=O)O[C@H]1C(=O)[C@@]2(C)C([C@H](OC(=O)c3ccccc3)[C@]3(O)C[C@H](O)C(C)=C1C3(C)C)[C@]1(OC(C)=O)CO[C@@H]1C[C@H]2O` (some centres not stated), the “activity change, negative = inhibition” value was inactive: -14.8%. In the case of `COc1ccc(S(=O)(=O)NCc2ccc(C(=O)N3CCC4(CC3)OCCO4)cc2)cc1`, the Potency is reported as inconclusive: 11.6 µM [inhibitor, partial curve, poor fit]. For `COCCn1cc(C(=O)N2CCC3(CC2)OCCO3)c2c3ccccc3n(C)c2c1=O`, the Potency was inconclusive: 8.2 µM [inhibitor, partial curve]. With `COC(=O)C(O)(c1ccc(NC(=O)NC2CCCCC2)cc1)C(F)(F)F` (configuration not stated) the Potency was inconclusive: 16.4 µM [activator, partial curve]. For `C=C1C[C@]2(O)[C@@]3(C)CCC(=O)C(C)(C)C3=C(O)C(=O)[C@@]2(C)[C@@H]2C(=O)O[C@@](C)(C(=O)OC)C(=O)[C@@]12C`, the Potency was inconclusive: 23.1 µM [activator, single point]. In the case of `N/C(=N\OC(=O)CCC1CCCC1)c1ccccc1`, the Potency is reported as inconclusive: 18.3 µM [activator, partial curve, poor fit]. For `CCN(CC)C(=O)c1ccc2c(c1)C1C=CCC1C(C(=O)O)N2` (configuration not stated), the “activity change, negative = inhibition” value was inactive: -13.8%. With `CCC(=NCCN1CCOCC1)c1c(O)n(C2CCCCC2)c(=O)[nH]c1=O` the Potency was inconclusive: 14.6 µM [activator, single point]. For `CCCCn1c(O)c(C(=O)/C=C/c2ccc3c(c2)OCO3)c(=O)[nH]c1=O`, the Potency was inconclusive: 25.9 µM [inhibitor, single point]. With `COc1ccc(-c2nc3ccccc3c(=O)n2-c2cccnc2)cc1` the “activity change, negative = inhibition” value was inactive: 11.5%. With `O=C(COc1ccc(Br)cc1)N1CCN(Cc2c[nH]c3ccccc23)CC1` the Potency was inconclusive: 20.6 µM [inhibitor, partial curve, poor fit]. In the case of `CN(C)c1ccc(/C=C/C=C2/C(=O)NC(=O)N(c3ccccc3)C2=O)cc1`, the Potency is reported as inconclusive: 29.1 µM [inhibitor, single point]. For `Cc1c(C(=O)N2CCC3(CC2)OCCO3)sc2ncnc(N3CCN(c4ccccn4)CC3)c12`, the Potency was active: 3.66 µM. For `CCn1cc(CN2CCCC(C(=O)c3cccc(OC)c3)C2)c(C)n1` (configuration not stated), the Potency was inconclusive: 14.6 µM [inhibitor, partial curve, poor fit]. For `CN1C(=O)C(=Cc2ccc(N3CCCCCC3)cc2)C(=O)N(C)C1=O`, the Potency was inconclusive: 18.3 µM [activator, partial curve, poor fit]. For `Cc1nn(Cc2ccccc2)c(Cl)c1C(=O)NC1CCCc2ccccc21` (configuration not stated), the Potency was inconclusive: 29.1 µM [inhibitor, single point]. In the case of `CC(C)c1oc(=O)cc2c1[C@@H](O)[C@H]1OC(=O)[C@@]3(C)CC[C@@H](O)[C@@]2(C)C13` (some centres not stated), the “activity change, negative = inhibition” value is reported as inactive: -23.5%. In the case of `O=C(c1cc([N+](=O)[O-])ccc1N1CCNCC1)N1CCOCC1`, the “activity change, negative = inhibition” value is reported as inactive: 17.7%. For `CCN(CC)C(=O)c1ccc(NC(=O)c2sccc2-c2ccccc2)cc1`, the Potency was inconclusive: 29.1 µM [inhibitor, single point]. In the case of `Cn1cccc1C(=O)OCC(=O)NCc1cccs1`, the Potency is reported as inconclusive: 23.1 µM [activator, partial curve]. For `CC1CCC(N(C)C2CCN(C)CC2)CC1` (configuration not stated), the “activity change, negative = inhibition” value was inactive: -6.89%. For `COC(=O)C1=C(c2cccc(OCc3ccccc3)c2)C[C@@H]2CC[C@H]1N2C(=O)NCCOc1ccc(OC)cc1`, the Potency was inconclusive: 16.4 µM [inhibitor, single point]. For `O=c1c2ccccc2nc(/C=C/c2ccc(F)cc2)n1-c1ccccn1`, the “activity change, negative = inhibition” value was inactive: -11.2%. For `Cc1nc2c(c(=O)[nH]1)C(c1ccc([N+](=O)[O-])cc1)c1c(c3ccccc3oc1=O)O2` (configuration not stated), the Potency was inconclusive: 14.6 µM [activator, partial curve, poor fit]. With `FC(F)(F)c1ccc(NC2=NCCCS2)cc1` the Potency was inconclusive: 23.1 µM [activator, single point]. For `CCOC(=O)c1c(C)n(Cc2ccccc2)c2ccc(OCC(O)Cn3nc(C)nc3C)cc12` (configuration not stated), the Potency was inconclusive: 16.4 µM [inhibitor, partial curve]. For `CC(C)(C)CC(=O)Nc1nnc(SCC(=O)NCc2cccs2)s1`, the Potency was inconclusive: 14.6 µM [inhibitor, partial curve, poor fit]. For `CN(C)C(=O)O/N=C(\N)COc1ccc(C(C)(C)C)cc1`, the Potency was inconclusive: 29.1 µM [inhibitor, single point]. For `CC(C)N1C(=S)SC(C)(C)C1n1oc(=O)n(-c2ccc(Cl)c(Cl)c2)c1=O` (configuration not stated), the Potency was inconclusive: 29.1 µM [inhibitor, partial curve, poor fit]. In the case of `CN=C(SCC(=O)c1cccc(Cl)c1)c1c(O)n(C)c(=O)n(C)c1=O`, the Potency is reported as inconclusive: 29.1 µM [activator, single point]. In the case of `O=C1NC(=O)N(Cc2ccco2)C(=O)/C1=C/c1cccn1CCOc1ccccc1Cl`, the Potency is reported as inconclusive: 23.1 µM [activator, partial curve]. For `CCOP(=O)(c1ccccc1)C(O)c1ccc([N+](=O)[O-])cc1` (configuration not stated), the Potency was inconclusive: 31.6 µM [activator, single point]. For `O=c1[nH]c(O)c(/C=C2/C=CC(c3cc(Cl)ccc3Cl)=N2)c(=O)[nH]1`, the Potency was inconclusive: 25.9 µM [activator, partial curve, poor fit]. For `O=C(c1cc(C(=O)NCc2ccccc2)c(=O)n(Cc2ccccc2)c1)c1cc(Cl)ccc1O`, the Potency was inconclusive: 23.1 µM [inhibitor, partial curve, poor fit]. For `O=C(c1c[nH]cc1-c1ccccc1)c1cccc2ccccc12`, the “activity change, negative = inhibition” value was inactive: -0.555%. With `CCc1cc(=O)oc2c(C)c(OCC(=O)N3CCC[C@@H]3C(=O)O)ccc12` the Potency was inconclusive: 0.517 µM [activator, full curve, poor fit]. In the case of `Nc1ccc2c(c1)oc1ccccc12`, the Potency is reported as inconclusive: 20.6 µM [activator, partial curve]. For `COc1ccc(OP(=O)(Nc2ccccc2)Nc2ccccc2)cc1`, the Potency was inconclusive: 23.1 µM [inhibitor, partial curve, poor fit]. For `O=S(=O)(c1ccccc1)N1CC1c1ccccc1` (configuration not stated), the Potency was inconclusive: 13 µM [activator, partial curve]. With `O=C1N=C(N2CCCCC2)SC1=C1CCCCC1` the Potency was inconclusive: 18.4 µM [activator, partial curve]. For `O=C(O)C1C2CC3CC(C2)CC1(n1ncc(N2CCC4(CC2)OCCO4)c(Cl)c1=O)C3` (configuration not stated), the Potency was inconclusive: 23.1 µM [activator, single point]. With `O=S1(=O)N(Cc2ccc(F)cc2)CCCN1Cc1ccccc1Cl` the “activity change, negative = inhibition” value was inactive: -4.52%. With `O=C1/C(=C/c2ccc3c(c2)OCO3)N2CCC1CC2` the “activity change, negative = inhibition” value was inactive: -5.99%. With `COc1ccc(/C=N/N=C(/N)N[N+](=O)[O-])c(OC)c1` the Potency was inconclusive: 23.1 µM [activator, single point]. With `Cc1cc(=O)n(-c2ccccc2)n1-c1ccccc1` the Potency was inconclusive: 16.4 µM [activator, partial curve, poor fit]. With `CCC(=O)Nc1ccc(C(=O)OCc2ccccc2Cl)cc1` the Potency was inconclusive: 18.4 µM [activator, partial curve]. With `CCCOc1ccc(N2C(=O)CC(N3CCC(O)(c4cccc(C(F)(F)F)c4)CC3)C2=O)cc1` (configuration not stated) the Potency was inconclusive: 29.1 µM [inhibitor, single point]. In the case of `COC(=O)C1=C(c2ccc(OC)c(OC)c2)C[C@@H]2CC[C@H]1N2C(=O)NC1Cc2ccccc2C1`, the Potency is reported as inconclusive: 14.6 µM [activator, partial curve]. With `C[C@@H]1O[C@@H](O[C@@H]2C=C3CC[C@@H]4C(CC[C@]5(C)[C@@H](c6ccc(=O)oc6)CC[C@]45O)[C@@]3(C)CC2)[C@H](O)[C@H](O)[C@H]1O` (some centres not stated) the Potency was inconclusive: 0.103 µM [inhibitor, full curve, poor fit]. With `COc1cccc2cc(-c3cc(=O)oc4ccc(OC(=O)N(C)C)cc34)oc12` the Potency was inconclusive: 25.9 µM [inhibitor, partial curve, poor fit]. In the case of `Cc1[nH]c2ccccc2c1C(=O)C(=O)N1CC2CC(C1)c1cccc(=O)n1C2` (configuration not stated), the “activity change, negative = inhibition” value is reported as inactive: 16.2%. In the case of `CCOP(=O)(OCC)c1nc(-c2ccccc2)oc1NCc1ccccc1`, the Potency is reported as inconclusive: 11.6 µM [inhibitor, partial curve]. For `C=CC[C@@H](CC(=O)N(CCO)Cc1ccccc1)C(=O)NC[C@H](OC(=O)[C@@H](CC=C)CC(=O)OC(C)(C)C)c1ccccc1`, the Potency was active: 20.6 µM. With `CCCCn1c(O)c(/C=C2/C=CC=N2)c(=O)[nH]c1=O` the “activity change, negative = inhibition” value was inactive: -19.4%.
